{
  "sequences": {"note": "By UniProt entry, the sequences of proteins in these tests, tags left out.", "UniProt P42224": "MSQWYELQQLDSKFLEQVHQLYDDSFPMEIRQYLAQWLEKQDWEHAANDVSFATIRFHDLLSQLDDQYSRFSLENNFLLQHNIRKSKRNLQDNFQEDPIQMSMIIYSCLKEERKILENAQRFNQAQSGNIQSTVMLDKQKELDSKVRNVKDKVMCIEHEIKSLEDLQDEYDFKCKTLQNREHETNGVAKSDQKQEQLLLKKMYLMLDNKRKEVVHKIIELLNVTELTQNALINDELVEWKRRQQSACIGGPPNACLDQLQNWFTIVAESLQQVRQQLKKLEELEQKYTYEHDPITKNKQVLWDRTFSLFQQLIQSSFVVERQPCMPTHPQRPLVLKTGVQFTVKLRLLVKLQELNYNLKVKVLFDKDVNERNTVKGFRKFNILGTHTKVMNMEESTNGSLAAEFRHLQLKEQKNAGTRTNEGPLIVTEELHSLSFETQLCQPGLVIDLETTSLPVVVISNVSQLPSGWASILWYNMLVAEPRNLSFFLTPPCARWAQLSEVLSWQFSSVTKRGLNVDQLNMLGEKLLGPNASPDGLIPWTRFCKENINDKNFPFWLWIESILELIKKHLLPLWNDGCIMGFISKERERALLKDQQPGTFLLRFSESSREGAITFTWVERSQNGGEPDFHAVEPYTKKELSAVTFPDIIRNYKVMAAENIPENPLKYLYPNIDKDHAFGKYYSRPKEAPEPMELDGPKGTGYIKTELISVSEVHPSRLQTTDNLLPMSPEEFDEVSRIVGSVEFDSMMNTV", "UniProt P29350": "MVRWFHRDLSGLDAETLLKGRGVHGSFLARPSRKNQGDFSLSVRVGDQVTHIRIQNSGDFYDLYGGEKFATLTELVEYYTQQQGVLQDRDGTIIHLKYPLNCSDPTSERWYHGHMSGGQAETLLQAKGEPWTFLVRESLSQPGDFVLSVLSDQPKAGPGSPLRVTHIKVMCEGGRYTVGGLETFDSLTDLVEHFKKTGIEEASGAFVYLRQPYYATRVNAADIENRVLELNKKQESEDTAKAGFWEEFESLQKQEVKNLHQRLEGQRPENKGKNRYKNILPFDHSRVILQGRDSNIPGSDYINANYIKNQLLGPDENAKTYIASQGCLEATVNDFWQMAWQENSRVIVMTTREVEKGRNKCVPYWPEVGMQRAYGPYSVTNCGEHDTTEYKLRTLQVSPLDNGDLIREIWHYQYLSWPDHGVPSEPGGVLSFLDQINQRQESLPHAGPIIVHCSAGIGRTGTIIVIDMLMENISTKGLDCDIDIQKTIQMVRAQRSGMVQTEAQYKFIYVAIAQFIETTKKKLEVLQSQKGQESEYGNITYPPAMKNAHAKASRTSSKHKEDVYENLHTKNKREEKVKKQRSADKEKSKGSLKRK"},
  "source": "paper PMC11926914",
  "molecules": {"B1": {"name": "Retinoic acid‐inducible gene I (RIG‐I) protein used in biolayer interferometry (protein, UniProt O95786 1-925)", "chain": "MTTEQRRSLQAFQDYIRKTLDPTYILSYMAPWFREEEVQYIQAEKNNKGPMEAATLFLKFLLELQEEGWFRGFLDALDHAGYSGLYEAIESWDFKKIEKLEEYRLLLKRLQPEFKTRIIPTDIISDLSECLINQECEEILQICSTKGMMAGAEKLVECLLRSDKENWPKTLKLALEKERNKFSELWIVEKGIKDVETEDLEDKMETSDIQIFYQEDPECQNLSENSCPPSEVSDTNLYSPFKPRNYQLELALPAMKGKNTIICAPTGCGKTFVSLLICEHHLKKFPQGQKGKVVFFANQIPVYEQQKSVFSKYFERHGYRVTGISGATAENVPVEQIVENNDIIILTPQILVNNLKKGTIPSLSIFTLMIFDECHNTSKQHPYNMIMFNYLDQKLGGSSGPLPQVIGLTASVGVGDAKNTDEALDYICKLCASLDASVIATVKHNLEELEQVVYKPQKFFRKVESRISDKFKYIIAQLMRDTESLAKRICKDLENLSQIQNREFGTQKYEQWIVTVQKACMVFQMPDKDEESRICKALFLYTSHLRKYNDALIISEHARMKDALDYLKDFFSNVRAAGFDEIEQDLTQRFEEKLQELESVSRDPSNENPKLEDLCFILQEEYHLNPETITILFVKTRALVDALKNWIEGNPKLSFLKPGILTGRGKTNQNTGMTLPAQKCILDAFKASGDHNILIATSVADEGIDIAQCNLVILYEYVGNVIKMIQTRGRGRARGSKCFLLTSNAGVIEKEQINMYKEKMMNDSILRLQTWDEAVFREKILHIQTHEKFIRDSQEKPKPVPDKENKKLLCRKCKALACYTADVRVIEECHYTVLGDAFKECFVSRPHPKPKQFSSFEKRAKIFCARQNCSHDWGIHVKYKTFEIPVIKIESFVVEDIATGVQTLYSKWKDFHFEKIPFDPAEMSK"}, "B2": {"name": "Retinoic acid‐inducible gene I (RIG‐I), endogenous in HT29 and HCT116 cells (protein, UniProt O95786 1-925)", "chain": "B1 chain"}},
  "key": {"[1]": {"target": "signal transducer and activator of transcription 1 (STAT1), endogenous in HT29 and HCT116 cells (human (endogenous in HT29 and HCT116)) (UniProt P42224)", "assay": "co-IP; HT29 and HCT116 cells treated with 2000 U/mL human IFN-α for 48 h or untreated; lysates immunoprecipitated with anti-STAT1 antibody, western blot"}, "[2]": {"target": "signal transducer and activator of transcription 1 (STAT1) protein used in biolayer interferometry (UniProt P42224)", "assay": "BLI; kinetic interactions of RIG-I and the STAT1 protein, in vitro; which partner was immobilised and the conditions are not stated; both purified"}},
  "note": "Results are given in words; binding and its absence hold for the method and conditions named. For part of these data: Binding seen in cells or lysates may run through a third protein. Some entries that bind do so weakly or less than the wild type.",
  "data": [
    {"molecule": "SHP1, endogenous in HT29 and HCT116 cells (from UniProt P29350 1-595)", "values": [
      {"measurement": "binding", "setting": "[1]", "result": "binds"}
    ]},
    {"molecule": "B1", "values": [
      {"measurement": "binding", "setting": "[2]", "result": "binds"}
    ]},
    {"molecule": "B2", "values": [
      {"measurement": "binding", "setting": "[1]", "result": "binds"}
    ]}
  ]
}
